Paper PMC10742334
These are yes or no findings as the source states them, for the method shown. In cells and extracts the contact can be indirect. Here binding means that the protein was enriched with, or labelled near, the bait; the list need not be complete.

Sequences of proteins named here, by UniProt entry; tags and fusion partners are left off.
UniProt P12814: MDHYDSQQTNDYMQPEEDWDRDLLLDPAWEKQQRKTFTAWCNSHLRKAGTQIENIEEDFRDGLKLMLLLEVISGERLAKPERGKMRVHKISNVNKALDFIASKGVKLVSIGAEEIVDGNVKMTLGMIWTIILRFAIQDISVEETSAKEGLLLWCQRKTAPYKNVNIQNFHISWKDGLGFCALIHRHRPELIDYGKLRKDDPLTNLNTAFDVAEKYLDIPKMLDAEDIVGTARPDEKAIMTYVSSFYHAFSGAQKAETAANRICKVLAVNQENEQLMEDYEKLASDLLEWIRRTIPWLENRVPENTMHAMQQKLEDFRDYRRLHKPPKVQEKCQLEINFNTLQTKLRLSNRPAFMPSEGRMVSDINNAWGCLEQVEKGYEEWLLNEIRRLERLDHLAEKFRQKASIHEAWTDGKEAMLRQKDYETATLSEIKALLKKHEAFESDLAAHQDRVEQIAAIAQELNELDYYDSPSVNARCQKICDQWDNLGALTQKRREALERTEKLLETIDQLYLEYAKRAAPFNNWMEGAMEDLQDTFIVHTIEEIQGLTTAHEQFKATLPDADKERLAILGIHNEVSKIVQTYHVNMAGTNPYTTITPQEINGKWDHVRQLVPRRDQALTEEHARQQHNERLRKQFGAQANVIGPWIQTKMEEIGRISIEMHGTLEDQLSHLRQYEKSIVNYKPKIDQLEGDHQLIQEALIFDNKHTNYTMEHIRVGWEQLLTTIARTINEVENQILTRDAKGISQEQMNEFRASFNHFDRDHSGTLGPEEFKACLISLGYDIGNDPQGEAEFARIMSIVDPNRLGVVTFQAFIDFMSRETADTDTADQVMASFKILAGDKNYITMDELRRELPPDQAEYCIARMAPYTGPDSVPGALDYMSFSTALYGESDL

Molecular target: T1, LLGL Scribble cell polarity complex component 2 (LLGL2) (UniProt Q6P1M3)
T1 sequence: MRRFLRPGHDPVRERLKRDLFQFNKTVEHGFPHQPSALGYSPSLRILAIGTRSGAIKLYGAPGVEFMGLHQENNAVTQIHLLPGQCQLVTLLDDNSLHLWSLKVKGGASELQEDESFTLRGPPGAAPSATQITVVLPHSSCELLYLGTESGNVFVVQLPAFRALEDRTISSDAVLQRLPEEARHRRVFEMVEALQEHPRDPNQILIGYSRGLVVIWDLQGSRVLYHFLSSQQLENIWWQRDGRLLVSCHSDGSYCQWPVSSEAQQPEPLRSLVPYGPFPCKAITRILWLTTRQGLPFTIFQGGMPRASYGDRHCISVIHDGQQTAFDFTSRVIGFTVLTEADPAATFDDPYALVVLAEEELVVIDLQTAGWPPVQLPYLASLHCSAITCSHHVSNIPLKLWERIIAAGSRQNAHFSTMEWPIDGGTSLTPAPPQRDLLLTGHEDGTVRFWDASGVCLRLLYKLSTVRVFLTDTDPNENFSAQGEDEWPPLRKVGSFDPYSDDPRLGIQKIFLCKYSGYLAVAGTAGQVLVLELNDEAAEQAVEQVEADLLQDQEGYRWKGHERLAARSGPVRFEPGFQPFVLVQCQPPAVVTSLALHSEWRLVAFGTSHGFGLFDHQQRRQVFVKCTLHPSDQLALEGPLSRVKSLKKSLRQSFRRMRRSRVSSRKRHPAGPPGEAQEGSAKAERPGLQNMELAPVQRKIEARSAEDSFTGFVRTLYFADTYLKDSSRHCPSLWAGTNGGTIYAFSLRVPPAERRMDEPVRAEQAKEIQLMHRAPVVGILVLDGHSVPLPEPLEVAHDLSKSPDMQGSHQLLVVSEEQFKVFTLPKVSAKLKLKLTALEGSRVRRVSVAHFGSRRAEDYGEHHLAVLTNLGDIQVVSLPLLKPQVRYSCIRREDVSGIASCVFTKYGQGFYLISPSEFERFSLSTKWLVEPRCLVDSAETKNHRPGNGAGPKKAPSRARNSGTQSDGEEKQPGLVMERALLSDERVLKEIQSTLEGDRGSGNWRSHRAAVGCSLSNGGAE
Assay: affinity purification with mass spectrometry; co-IP with monoclonal anti-LLGL2 antibody from lysate of LLGL2-overexpressing ES-2 cells (weak lysis buffer, overnight at 4 °C, protein A/G magnetic beads, PBST washes); whole gel strip (>10 kDa) analysed by LC-MS

Question: Which binding does the source give for “α-actinin-1 (ACTN1) (from UniProt P12814 1-892)” here?
Answer: binds
